1 molecule from article doi:10.1101/2022.06.20.496848 can be followed below.

Protein sequences, listed by entry. Tags and fused reporters are not part of them.
UniProt Q13283: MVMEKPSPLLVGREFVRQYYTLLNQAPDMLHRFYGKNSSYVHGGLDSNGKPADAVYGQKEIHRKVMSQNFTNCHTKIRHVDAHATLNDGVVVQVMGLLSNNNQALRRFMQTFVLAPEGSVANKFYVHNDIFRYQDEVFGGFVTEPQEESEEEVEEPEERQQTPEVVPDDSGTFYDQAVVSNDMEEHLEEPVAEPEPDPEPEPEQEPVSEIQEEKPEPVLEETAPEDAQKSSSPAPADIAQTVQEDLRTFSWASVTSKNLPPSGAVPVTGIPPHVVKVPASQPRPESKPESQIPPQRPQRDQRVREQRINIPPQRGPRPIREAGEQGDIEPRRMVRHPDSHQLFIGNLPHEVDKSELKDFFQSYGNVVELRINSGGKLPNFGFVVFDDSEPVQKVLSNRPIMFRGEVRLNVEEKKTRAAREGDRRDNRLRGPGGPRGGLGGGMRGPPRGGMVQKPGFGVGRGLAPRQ

No constants are given. Whether binding was seen depends on the method and setting. In cells and extracts the contact can be indirect. Some entries that bind do so weakly or less than the wild type.

For this test, the target named is G3BP1 (human (endogenous in HeLa)) (UniProt Q13283). The test can be described thus: co-IP.

B1: hnRNP R (protein, UniProt O43390 1-633)
chain: MANQVNGNAVQLKEEEEPMDTSSVTHTEHYKTLIEAGLPQKVAERLDEIFQTGLVAYVDLDERAIDALREFNEEGALSVLQQFKESDLSHVQNKSAFLCGVMKTYRQREKQGSKVQESTKGPDEAKIKALLERTGYTLDVTTGQRKYGGPPPDSVYSGVQPGIGTEVFVGKIPRDLYEDELVPLFEKAGPIWDLRLMMDPLSGQNRGYAFITFCGKEAAQEAVKLCDSYEIRPGKHLGVCISVANNRLFVGSIPKNKTKENILEEFSKVTEGLVDVILYHQPDDKKKNRGFCFLEYEDHKSAAQARRRLMSGKVKVWGNVVTVEWADPVEEPDPEVMAKVKVLFVRNLATTVTEEILEKSFSEFGKLERVKKLKDYAFVHFEDRGAAVKAMDEMNGKEIEGEEIEIVLAKPPDKKRKERQAARQASRSTAYEDYYYHPPPRMPPPIRGRGRGGGRGGYGYPPDYYGYEDYYDDYYGYDYHDYRGGYEDPYYGYDDGYAVRGRGGGRGGRGAPPPPRGRGAPPPRGRAGYSQRGAPLGPPRGSRGGRGGPAQQQRGRGSRGSRGNRGGNVGGKRKADGYNQPDSKRRQTNNQQNWGSQPIAQQPLQQGGDYSGNYGYNNDNQEFYQDTYGQQWK
With B1, the binding entry is listed as “binds”.
